# Assay results published in article PMC4063869, “Structure of CbpA J-Domain Bound to the Regulatory Protein CbpM Explains Its Specificity and Suggests Evolutionary Link between CbpM and Transcriptional Regulators” (PLoS ONE, 2014).
# These are yes or no findings as the source states them, for the method shown. Some entries that bind do so weakly or less than the wild type.
# Target: T1, CbpM (residues 2-101), species not named for the experiment (not stated (E. coli K-12 or K. pneumoniae cloned)) (UniProt P63264)
# T1 sequence: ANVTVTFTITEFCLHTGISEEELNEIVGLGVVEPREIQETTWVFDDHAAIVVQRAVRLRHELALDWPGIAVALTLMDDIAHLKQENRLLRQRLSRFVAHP
# Assay: SPR; CbpM immobilised, DnaJ^Jdom variants injected (50 µL/min, 120 s); ProteOn XPR36, 25°C, 50 mM sodium phosphate pH 7.4, 100 mM NaCl, 1 mM DTT, 0.005% Tween 20; steady-state equilibrium fit (one site); both purified
row,Substance,binding
1,Chimeric DnaJ^Jdom(36-42): DnaJ J-domain with the loop between helices α2 and α3 replaced by that of CbpA^Jdom (from UniProt P08622 2-79) (domain or fragment),binds weakly
2,DnaJ^Jdom triple mutant K26R/M30R/R36V (from UniProt P08622 2-79) (domain or fragment),binds weakly
3,"Wild-type J-domain of E. coli DnaJ (DnaJ^Jdom, residues 2-79) (from UniProt P08622 2-79) (domain or fragment)",no binding
